In paper doi:10.1101/2021.04.21.440798:
No constants are given. Whether binding was seen depends on the method and setting. Binding seen in cells or lysates may run through a third protein. A yes stands for co-enrichment or nearness to the bait. Other partners may have been found.

Protein sequences, listed by entry. Tags and fused reporters are not part of them. Residues count along the entry.
UniProt P53618: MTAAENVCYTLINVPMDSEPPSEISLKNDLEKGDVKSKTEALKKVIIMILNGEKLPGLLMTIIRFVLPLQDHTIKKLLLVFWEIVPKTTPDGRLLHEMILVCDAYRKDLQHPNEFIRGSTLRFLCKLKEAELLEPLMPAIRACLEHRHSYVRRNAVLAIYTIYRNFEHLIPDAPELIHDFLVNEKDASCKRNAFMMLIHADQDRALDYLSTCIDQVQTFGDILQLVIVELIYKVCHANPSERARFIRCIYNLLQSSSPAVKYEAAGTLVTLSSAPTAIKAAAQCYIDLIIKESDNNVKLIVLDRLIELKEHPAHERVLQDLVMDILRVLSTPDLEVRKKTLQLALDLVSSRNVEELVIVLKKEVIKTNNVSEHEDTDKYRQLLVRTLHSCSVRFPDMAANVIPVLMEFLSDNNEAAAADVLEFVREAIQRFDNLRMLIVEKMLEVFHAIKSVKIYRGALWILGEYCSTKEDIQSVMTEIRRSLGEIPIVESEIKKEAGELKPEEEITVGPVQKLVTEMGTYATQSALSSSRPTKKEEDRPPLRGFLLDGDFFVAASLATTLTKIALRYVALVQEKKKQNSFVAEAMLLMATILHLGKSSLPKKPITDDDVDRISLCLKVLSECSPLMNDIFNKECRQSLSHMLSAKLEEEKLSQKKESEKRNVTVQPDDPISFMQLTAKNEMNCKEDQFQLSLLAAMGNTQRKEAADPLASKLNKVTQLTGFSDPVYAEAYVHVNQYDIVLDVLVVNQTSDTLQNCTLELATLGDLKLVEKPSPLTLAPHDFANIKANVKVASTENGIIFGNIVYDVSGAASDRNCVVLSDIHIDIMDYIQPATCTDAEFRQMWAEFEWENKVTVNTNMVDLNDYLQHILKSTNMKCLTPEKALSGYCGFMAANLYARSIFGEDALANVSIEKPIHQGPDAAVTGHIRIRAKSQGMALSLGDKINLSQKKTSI
UniProt Q8IWV7: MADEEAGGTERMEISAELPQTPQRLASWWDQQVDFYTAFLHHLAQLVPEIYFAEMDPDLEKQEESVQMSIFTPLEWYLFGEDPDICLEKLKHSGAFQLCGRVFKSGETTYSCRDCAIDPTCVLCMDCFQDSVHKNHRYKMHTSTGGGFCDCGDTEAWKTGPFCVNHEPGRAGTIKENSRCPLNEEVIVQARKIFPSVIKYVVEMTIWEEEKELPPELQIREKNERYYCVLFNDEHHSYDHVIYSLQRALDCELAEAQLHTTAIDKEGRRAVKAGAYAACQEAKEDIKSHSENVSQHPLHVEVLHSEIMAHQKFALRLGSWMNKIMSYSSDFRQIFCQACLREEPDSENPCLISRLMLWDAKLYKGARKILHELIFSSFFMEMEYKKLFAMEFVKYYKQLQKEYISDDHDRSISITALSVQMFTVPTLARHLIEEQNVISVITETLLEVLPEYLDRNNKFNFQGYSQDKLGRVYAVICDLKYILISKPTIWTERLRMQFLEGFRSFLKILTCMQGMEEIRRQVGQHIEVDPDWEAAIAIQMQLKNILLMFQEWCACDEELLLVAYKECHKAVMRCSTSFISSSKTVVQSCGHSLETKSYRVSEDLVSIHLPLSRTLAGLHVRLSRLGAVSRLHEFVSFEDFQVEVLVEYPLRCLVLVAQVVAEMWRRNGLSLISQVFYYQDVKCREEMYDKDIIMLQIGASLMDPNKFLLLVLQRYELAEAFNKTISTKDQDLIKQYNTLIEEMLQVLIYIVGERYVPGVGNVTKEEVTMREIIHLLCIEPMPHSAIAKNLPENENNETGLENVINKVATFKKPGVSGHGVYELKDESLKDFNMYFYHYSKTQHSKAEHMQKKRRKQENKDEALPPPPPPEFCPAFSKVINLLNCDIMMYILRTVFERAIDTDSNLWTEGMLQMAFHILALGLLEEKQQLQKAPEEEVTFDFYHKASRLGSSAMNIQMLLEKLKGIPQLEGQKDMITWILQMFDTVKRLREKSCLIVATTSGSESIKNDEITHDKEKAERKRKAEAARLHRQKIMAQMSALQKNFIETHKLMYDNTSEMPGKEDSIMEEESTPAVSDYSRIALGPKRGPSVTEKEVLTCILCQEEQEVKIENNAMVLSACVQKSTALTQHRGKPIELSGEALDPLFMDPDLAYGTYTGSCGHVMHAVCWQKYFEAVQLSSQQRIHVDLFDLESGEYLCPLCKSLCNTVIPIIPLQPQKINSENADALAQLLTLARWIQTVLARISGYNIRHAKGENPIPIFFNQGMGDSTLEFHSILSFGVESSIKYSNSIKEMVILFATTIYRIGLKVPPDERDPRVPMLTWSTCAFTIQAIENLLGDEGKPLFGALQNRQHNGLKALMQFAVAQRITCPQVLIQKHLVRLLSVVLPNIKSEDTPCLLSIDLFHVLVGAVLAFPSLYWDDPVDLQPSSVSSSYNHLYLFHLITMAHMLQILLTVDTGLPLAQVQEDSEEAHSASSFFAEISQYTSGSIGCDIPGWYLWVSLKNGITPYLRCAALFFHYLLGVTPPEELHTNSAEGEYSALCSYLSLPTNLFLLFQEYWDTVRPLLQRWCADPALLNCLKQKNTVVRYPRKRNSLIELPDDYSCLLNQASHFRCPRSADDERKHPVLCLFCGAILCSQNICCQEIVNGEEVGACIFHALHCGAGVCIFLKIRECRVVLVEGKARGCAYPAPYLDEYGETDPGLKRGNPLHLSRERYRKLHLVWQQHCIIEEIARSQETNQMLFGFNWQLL
UniProt Q9UHD2: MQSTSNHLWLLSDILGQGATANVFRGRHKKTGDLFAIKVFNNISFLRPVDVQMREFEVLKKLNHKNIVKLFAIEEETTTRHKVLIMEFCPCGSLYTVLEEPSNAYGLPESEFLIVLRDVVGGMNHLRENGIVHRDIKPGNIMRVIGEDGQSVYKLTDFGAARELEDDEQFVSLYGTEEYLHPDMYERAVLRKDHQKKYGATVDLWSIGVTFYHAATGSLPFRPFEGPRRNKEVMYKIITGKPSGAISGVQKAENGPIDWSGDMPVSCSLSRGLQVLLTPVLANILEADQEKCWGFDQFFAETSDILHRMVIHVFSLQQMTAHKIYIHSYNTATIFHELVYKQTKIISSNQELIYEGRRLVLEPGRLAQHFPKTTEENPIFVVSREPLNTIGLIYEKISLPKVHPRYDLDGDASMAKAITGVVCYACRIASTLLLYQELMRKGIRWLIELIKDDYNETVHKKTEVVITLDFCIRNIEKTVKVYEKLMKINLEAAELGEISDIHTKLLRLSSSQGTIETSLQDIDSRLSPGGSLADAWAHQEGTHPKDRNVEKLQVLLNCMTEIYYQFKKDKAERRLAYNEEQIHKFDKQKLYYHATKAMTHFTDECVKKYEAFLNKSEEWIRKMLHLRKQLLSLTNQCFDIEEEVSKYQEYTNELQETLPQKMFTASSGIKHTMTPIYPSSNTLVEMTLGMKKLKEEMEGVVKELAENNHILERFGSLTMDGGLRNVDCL
UniProt Q93050: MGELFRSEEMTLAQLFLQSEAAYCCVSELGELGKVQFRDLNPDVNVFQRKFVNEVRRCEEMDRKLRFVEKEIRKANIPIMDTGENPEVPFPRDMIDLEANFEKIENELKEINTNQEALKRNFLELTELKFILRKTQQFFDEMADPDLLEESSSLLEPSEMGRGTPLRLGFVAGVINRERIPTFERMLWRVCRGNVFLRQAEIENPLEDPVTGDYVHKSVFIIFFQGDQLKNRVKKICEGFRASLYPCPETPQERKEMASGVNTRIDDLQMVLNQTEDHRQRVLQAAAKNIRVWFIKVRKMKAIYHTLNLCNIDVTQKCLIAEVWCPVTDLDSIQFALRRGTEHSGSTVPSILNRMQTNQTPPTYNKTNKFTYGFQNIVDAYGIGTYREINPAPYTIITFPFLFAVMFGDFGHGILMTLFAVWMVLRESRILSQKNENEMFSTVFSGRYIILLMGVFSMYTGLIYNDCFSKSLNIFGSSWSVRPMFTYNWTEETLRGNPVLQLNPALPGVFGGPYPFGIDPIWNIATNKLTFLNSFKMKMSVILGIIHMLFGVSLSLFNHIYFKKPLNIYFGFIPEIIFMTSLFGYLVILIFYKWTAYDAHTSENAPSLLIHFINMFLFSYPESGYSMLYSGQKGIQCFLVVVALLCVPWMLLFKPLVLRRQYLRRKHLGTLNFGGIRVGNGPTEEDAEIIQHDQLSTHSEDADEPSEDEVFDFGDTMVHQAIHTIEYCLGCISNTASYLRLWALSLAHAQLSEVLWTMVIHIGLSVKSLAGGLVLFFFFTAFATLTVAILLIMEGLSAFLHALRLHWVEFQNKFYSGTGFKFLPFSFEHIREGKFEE
UniProt P46379: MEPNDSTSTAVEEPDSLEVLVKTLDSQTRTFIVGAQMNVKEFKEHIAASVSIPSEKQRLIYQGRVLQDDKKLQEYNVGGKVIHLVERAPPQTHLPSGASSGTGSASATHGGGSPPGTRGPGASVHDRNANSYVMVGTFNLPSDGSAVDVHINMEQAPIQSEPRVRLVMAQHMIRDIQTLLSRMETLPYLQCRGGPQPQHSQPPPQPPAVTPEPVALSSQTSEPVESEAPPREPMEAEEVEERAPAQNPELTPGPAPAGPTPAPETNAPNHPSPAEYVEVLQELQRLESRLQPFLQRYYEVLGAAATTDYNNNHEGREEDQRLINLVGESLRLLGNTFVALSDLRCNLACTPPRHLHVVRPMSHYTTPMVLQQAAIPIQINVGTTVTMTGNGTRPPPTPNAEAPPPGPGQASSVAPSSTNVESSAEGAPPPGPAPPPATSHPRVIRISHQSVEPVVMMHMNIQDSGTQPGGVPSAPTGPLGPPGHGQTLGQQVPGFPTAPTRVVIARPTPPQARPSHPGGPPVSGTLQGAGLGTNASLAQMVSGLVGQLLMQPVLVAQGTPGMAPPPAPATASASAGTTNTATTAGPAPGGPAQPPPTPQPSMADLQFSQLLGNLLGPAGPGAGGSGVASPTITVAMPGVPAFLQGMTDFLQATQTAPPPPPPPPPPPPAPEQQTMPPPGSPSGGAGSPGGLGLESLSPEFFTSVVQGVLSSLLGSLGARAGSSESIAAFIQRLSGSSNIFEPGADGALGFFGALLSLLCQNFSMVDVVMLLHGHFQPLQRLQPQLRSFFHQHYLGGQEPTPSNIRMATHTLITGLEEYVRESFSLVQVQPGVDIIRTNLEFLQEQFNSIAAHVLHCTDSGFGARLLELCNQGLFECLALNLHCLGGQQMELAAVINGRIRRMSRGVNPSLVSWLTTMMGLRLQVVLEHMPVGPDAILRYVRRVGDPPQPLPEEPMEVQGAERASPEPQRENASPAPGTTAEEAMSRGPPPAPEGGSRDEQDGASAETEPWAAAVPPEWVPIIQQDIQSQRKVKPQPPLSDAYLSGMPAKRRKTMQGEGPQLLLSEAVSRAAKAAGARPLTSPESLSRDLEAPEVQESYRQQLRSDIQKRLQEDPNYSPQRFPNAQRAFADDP
UniProt P27824, residues 21-592: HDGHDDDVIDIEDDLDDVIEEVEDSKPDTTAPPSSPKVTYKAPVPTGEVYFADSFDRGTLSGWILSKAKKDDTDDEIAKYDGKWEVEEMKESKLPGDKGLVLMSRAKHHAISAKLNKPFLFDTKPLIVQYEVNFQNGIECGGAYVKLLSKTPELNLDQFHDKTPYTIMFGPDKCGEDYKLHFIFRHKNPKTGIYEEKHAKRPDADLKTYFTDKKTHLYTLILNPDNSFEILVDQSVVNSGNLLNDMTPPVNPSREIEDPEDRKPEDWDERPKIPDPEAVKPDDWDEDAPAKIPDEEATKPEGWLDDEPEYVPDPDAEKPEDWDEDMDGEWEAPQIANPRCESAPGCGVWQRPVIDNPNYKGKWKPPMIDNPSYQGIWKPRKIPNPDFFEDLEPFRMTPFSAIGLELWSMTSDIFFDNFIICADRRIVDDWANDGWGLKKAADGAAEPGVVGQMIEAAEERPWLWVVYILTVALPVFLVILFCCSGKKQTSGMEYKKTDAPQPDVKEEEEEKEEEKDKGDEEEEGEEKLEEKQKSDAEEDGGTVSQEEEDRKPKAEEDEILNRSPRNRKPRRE

target: GFP-T6BP (TAX1BP1 / TRAF6-Binding Protein fused to GFP) (UniProt Q86VP1); assay: affinity purification with mass spectrometry

binding, binds:
E3 Ub-ligase UBR2 (from UniProt Q8IWV8 1-1755)
COPB1 (from UniProt P53618 1-953)
E3 Ub-ligase UBR1 (from UniProt Q8IWV7 1-1749)
Sequestosome-1 / p62 (SQSTM1) (from UniProt Q13501 1-440)
kinase TBK1 (TANK-binding kinase-1) (from UniProt Q9UHD2 1-729)
ATP6V0A1, a subunit of the vATPase (from UniProt Q93050 1-837)
BAG6 (from UniProt P46379 1-1132)
Calnexin (CANX), endogenous (from UniProt P27824 21-592)
